The source of these data is patent US20220363748A1.

No constants are given. Whether binding was seen depends on the method and setting.

This experiment addresses T1, Irrelevant (human) (UniProt P07306).
T1 sequence (control antigen, biotinylated at the Avitag with BirA (p-0297), looked up): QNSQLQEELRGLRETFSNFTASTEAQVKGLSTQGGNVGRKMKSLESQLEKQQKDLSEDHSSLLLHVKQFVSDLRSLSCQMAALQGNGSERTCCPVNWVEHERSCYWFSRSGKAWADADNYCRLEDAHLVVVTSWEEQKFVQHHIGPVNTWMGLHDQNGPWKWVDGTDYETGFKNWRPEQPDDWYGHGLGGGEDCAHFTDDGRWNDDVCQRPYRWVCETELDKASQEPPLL
The experiment in a line: condition: 10 µg/mL EGFR-Fc, with or without 10 µg/mL untagged RAGE (not on the sheet); ELISA: biotinylated antigen on streptavidin plate, EGFR-Fc with or without untagged RAGE, detection with anti-human IgG HRP. A general note: ELISA stands for enzyme-linked immunosorbent assay.

“EGFR-Fc (R&D Systems #344-ER-050) (from UniProt P00533 25-645) (Fc fusion)”: the binding result is on record as “no binding”.
